We go through 10 molecules from PMC10163288.

Some of the results follow.

Sequences and labels used below:
B1: il2ra_site2_3nfp_sap_19_mot_HHH_b1_07498_000000011_0001_1_19_H_._1a4252fcbf463328b814843e80ab038b_0001_0001_0000900006_0000001_0_0001 (protein)
chain: SSSSDKHEEYVRAAIAAIRRALEDGDPEAAERLVRIAILAARDIRNPELEKELEELLEELSSSSS
B2: il2ra_site1_1z92_normal_mot_7f39e2d7389de0c2f60e905c27398b6a_0001_1_000000104_0001_37_51_H_._b993f726e2a1b23aaa9ca63207d855c5_0001_0001_0000100001_0000001_0_af2 … (protein)
chain: GEEEVENAERFAGGDPEKFVRLVLRLLRASGELSPEELKELEEKLRELLKRDPEKAKELAEELLH
B3: il2ra_site1_2b5i_normal_mot_HHH_b2_08262_af2_000000095_0001_1_15_H_._HHH_b2_08088_0001_0000400021_0000001_0 (protein)
chain: SSSSSDEEVEELFLEASRAFRKGNPEEAEELLEEALRLARELGDPRSAEDIEQMLRRLKSSSSSS
B4: il2ra_site2_3nfp_sap_18_mot_HHH_b2_02902_af2_000000043_0001_44_57_H_._HHH_b2_05654_0001_0000100001_0000001_0_0001_af2pred_0001_1_af2pred_swapped (protein)
chain: SSSSSDEEEEEVERLLEEAKHTEDEHEVFALLSAALEIALKAGDEELERRVRELSHKLLESSSSS
B5: il2ra_site1_1z92_sap_8_mot_6e12af4a48b4634929ba45889b8be782_0001_af2_000000007_0001_36_50_H_._HHH_b2_01103_0001_0000200009_0000001_0_0001 (protein)
chain: SSSSDRLEKALRIAVRVAVEAAGLSPEQQEELEELARELAERGVDPLEAIKILDKRALELSSSSS
B6: il2ra_site2_2erj_normal_mot_c2bf78bdce995293a161f7082e24b401_0001_af2_000000082_0001_17_32_H_._HHH_b2_07485_0001_0000200012_0000001_0 (protein)
chain: SSSSSEEEEEIEKLIRELEEAIERGDLEEAYRLANRALHLISKLGDEELQELLSETLERASSSSS
B7: il2ra_site1_2b5i_sap_10_mot_HHH_b2_07920_000000157_0001_21_37_H_._HHH_b2_04490_0001_0000100001_0000001_0_0001_af2pred_dldesign_0_af2pred (protein)
chain: SIEDVISEVIEKGLLDEDEEAELLRLVVDLIYKKDPRLEEYKKKLQEAVEKEDGELVRKIIEELK
B8: il2ra_site2_2erj_sap_23_mot_dcd9809507f71d420582ead1f1e1bbb3_0001_000000226_0001_37_50_H_._84744eca03b61d784461fbba3329deeb_0001_0001_0001000036_0000001_0_0001 (protein)
chain: DDERLIERYIELQAELAGVPQFEVELENNTITVHVDGDDEAARLLLEAVRHALEALGIPFEVTEK
B9: il2ra_site1_3nfp_sap_19_mot_HHH_b1_00333_af2_000000057_0001_25_41_H_._7e097e0b0376360e4b772b7e6a761d91_0001_af2_0001_0000200009_0000001_0_0001 (protein)
chain: DIRKLIQFIAEKDNVPPEEAAEWLVKSWEKTAKVPPEEAIKVLIERAREAGDPEIVEVLEELLRK
B10: il2ra_site2_2erj_normal_mot_9f5b7fc4e9d6b3037bff8dd1fb84ce76_0001_000000082_0001_16_32_H_._HHH_b2_05667_0001_0000100006_0000001_0_af2pred_0001_1_af2pred_swapped (protein)
chain: SSSSSSSEVEEEVERLLEEAERIPDPKKARKLLVRAHYVARKNNNDELKELVHKVDEELSSSSSS

This test addresses il2ra, P01589. The test is described as follows: yeast display titration.
Turning to B1, the “apparent Kd” value was “inactive: no binding seen”.
For the molecule B2, the “apparent Kd” value is “inactive: no binding seen”.
B3: the “apparent Kd” value was “inactive: no binding seen”.
Consider B4, for which the “apparent Kd” value was “inactive: no binding seen”.
With B5, the “apparent Kd” value was “inactive: no binding seen”.
On to B6, for which the “apparent Kd” value was “inactive: no binding seen”.
Regarding B7, the “apparent Kd” value was “inactive: no binding seen”.
Turning to B8, the “apparent Kd” value was “inactive: no binding seen”.
For B9, the “apparent Kd” value is “inactive: no binding seen”.
B10: the “apparent Kd” value was “inactive: no binding seen”.
